The source of these data is article PMC9582515.

The target of test [1] is T1, Dynein axonemal assembly factor 5 (DNAAF5), in HCC cell lysate (human) (UniProt Q86Y56).
T1 sequence: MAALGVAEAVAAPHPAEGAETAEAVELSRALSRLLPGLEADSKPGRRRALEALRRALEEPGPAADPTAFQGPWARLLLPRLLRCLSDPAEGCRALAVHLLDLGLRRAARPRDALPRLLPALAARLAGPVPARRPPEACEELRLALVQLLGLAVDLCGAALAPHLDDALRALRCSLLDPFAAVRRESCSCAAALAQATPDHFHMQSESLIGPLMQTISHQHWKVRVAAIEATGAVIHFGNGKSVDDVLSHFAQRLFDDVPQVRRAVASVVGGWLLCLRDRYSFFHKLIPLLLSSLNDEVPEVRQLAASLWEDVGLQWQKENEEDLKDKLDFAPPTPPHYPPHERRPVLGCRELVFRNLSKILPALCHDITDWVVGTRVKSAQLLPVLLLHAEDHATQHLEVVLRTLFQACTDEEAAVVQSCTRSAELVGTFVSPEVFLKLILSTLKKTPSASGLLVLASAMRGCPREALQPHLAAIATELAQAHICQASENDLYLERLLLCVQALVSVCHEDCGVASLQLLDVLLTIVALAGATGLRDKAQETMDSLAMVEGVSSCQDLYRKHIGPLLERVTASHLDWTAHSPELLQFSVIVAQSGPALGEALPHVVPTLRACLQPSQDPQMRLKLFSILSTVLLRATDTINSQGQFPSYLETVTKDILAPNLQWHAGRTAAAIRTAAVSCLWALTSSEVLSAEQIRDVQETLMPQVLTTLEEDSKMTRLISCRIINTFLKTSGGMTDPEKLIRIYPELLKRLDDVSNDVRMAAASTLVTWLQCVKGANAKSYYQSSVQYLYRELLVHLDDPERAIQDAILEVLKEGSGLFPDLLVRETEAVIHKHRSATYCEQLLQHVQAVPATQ
The test can be described thus: co-IP; Hep3B cell lysate; IP antibody on Dynabead protein G overnight at 4 °C, immunoblotting; IgG as negative control. In general terms: In western blotting, separated proteins are transferred to a membrane and probed.

In another test the target is T2, GST-DNAAF5 (human) (UniProt Q86Y56).
T2 sequence: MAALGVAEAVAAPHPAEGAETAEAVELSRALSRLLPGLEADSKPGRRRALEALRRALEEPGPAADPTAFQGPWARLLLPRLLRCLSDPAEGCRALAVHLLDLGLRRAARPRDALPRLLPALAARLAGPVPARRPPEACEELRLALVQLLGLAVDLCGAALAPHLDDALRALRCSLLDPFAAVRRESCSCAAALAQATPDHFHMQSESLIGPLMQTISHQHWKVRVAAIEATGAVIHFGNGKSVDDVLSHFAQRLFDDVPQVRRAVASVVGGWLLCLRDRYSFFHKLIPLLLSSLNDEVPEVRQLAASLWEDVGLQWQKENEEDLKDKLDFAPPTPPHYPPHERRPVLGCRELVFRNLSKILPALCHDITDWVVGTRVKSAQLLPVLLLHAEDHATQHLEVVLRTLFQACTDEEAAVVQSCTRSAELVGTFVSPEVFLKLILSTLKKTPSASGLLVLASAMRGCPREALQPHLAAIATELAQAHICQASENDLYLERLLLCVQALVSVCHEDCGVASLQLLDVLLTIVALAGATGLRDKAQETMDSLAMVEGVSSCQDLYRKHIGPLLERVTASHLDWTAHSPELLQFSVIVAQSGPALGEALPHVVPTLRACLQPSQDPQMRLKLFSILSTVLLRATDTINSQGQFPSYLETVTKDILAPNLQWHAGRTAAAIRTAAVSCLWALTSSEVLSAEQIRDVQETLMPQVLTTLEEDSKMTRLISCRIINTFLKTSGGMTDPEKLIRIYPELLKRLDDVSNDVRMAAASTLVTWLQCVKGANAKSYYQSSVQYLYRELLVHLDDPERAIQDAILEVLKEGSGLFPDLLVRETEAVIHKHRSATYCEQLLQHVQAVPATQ
The test can be described thus: pull-down; GST- and His-pulldown with purified GST- and His-tagged proteins (Thermo Scientific kits 21516, 21277); GST alone as control; both purified.

Test [2] deals with T3, PFKL (phosphofructokinase, liver type), in HCC cell lysate (human) (UniProt P17858).
T3 sequence: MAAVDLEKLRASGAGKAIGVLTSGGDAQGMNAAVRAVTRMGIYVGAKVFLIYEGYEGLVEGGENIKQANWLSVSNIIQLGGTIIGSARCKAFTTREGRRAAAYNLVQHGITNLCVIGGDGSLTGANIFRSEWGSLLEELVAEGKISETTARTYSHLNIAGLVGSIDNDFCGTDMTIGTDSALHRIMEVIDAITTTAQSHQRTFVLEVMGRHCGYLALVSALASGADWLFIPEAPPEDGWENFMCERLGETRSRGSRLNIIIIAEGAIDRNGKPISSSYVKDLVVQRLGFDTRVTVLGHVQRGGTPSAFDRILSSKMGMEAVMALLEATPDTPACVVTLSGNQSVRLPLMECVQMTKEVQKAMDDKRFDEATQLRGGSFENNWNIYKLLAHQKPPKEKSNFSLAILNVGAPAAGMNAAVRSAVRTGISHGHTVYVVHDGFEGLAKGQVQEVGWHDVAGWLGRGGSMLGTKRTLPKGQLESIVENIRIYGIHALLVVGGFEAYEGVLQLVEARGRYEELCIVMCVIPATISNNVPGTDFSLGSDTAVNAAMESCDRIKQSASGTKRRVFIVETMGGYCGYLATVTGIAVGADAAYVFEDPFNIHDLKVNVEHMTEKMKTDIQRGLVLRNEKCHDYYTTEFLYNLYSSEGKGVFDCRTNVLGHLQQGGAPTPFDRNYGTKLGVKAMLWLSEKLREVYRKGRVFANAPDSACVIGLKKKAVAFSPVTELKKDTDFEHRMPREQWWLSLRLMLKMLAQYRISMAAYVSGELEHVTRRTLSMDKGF
The test can be described thus: co-IP; Hep3B cell lysate; IP antibody on Dynabead protein G overnight at 4 °C, immunoblotting; IgG as negative control.

The target of a further test is T4, GST-PFKL (human) (UniProt P17858).
T4 sequence: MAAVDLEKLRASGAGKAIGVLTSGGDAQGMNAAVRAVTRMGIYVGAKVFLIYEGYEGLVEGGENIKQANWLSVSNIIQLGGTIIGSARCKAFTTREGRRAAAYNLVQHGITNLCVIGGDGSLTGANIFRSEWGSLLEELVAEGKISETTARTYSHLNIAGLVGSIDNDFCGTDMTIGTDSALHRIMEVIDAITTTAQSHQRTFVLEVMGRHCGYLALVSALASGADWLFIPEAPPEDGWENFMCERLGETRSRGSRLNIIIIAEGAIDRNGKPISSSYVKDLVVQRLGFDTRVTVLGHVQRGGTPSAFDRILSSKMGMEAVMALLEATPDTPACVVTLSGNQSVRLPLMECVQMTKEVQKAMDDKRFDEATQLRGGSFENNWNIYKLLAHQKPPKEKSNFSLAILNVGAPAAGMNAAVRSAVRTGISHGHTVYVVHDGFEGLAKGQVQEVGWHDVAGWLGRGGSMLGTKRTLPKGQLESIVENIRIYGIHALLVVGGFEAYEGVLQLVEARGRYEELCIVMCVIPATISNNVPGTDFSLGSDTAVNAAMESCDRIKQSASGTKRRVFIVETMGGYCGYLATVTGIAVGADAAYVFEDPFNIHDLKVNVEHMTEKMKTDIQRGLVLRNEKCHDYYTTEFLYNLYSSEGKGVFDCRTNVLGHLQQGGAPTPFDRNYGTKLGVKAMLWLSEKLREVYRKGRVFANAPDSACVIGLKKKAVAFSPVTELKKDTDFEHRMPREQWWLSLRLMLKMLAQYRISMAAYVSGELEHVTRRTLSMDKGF
The test can be described thus: pull-down; GST- and His-pulldown with purified GST- and His-tagged proteins (Thermo Scientific kits 21516, 21277); GST alone as control; both purified.

These are yes or no findings as the source states them, for the method shown. For part of these data: Binding seen in cells or lysates may run through a third protein. Some binding calls cover weakened binding; strength is not graded here. For part of these data: Where a sequence is shown, tags or fusion partners need not be part of it.

B1: PFKL (phosphofructokinase, liver type), in HCC cell lysate (enzyme, UniProt P17858 1-780)
chain: MAAVDLEKLRASGAGKAIGVLTSGGDAQGMNAAVRAVTRMGIYVGAKVFLIYEGYEGLVEGGENIKQANWLSVSNIIQLGGTIIGSARCKAFTTREGRRAAAYNLVQHGITNLCVIGGDGSLTGANIFRSEWGSLLEELVAEGKISETTARTYSHLNIAGLVGSIDNDFCGTDMTIGTDSALHRIMEVIDAITTTAQSHQRTFVLEVMGRHCGYLALVSALASGADWLFIPEAPPEDGWENFMCERLGETRSRGSRLNIIIIAEGAIDRNGKPISSSYVKDLVVQRLGFDTRVTVLGHVQRGGTPSAFDRILSSKMGMEAVMALLEATPDTPACVVTLSGNQSVRLPLMECVQMTKEVQKAMDDKRFDEATQLRGGSFENNWNIYKLLAHQKPPKEKSNFSLAILNVGAPAAGMNAAVRSAVRTGISHGHTVYVVHDGFEGLAKGQVQEVGWHDVAGWLGRGGSMLGTKRTLPKGQLESIVENIRIYGIHALLVVGGFEAYEGVLQLVEARGRYEELCIVMCVIPATISNNVPGTDFSLGSDTAVNAAMESCDRIKQSASGTKRRVFIVETMGGYCGYLATVTGIAVGADAAYVFEDPFNIHDLKVNVEHMTEKMKTDIQRGLVLRNEKCHDYYTTEFLYNLYSSEGKGVFDCRTNVLGHLQQGGAPTPFDRNYGTKLGVKAMLWLSEKLREVYRKGRVFANAPDSACVIGLKKKAVAFSPVTELKKDTDFEHRMPREQWWLSLRLMLKMLAQYRISMAAYVSGELEHVTRRTLSMDKGF
B1: the binding entry in test [1] was “binds”.

B2: His-PFKL (enzyme, UniProt P17858 1-780)
chain: MAAVDLEKLRASGAGKAIGVLTSGGDAQGMNAAVRAVTRMGIYVGAKVFLIYEGYEGLVEGGENIKQANWLSVSNIIQLGGTIIGSARCKAFTTREGRRAAAYNLVQHGITNLCVIGGDGSLTGANIFRSEWGSLLEELVAEGKISETTARTYSHLNIAGLVGSIDNDFCGTDMTIGTDSALHRIMEVIDAITTTAQSHQRTFVLEVMGRHCGYLALVSALASGADWLFIPEAPPEDGWENFMCERLGETRSRGSRLNIIIIAEGAIDRNGKPISSSYVKDLVVQRLGFDTRVTVLGHVQRGGTPSAFDRILSSKMGMEAVMALLEATPDTPACVVTLSGNQSVRLPLMECVQMTKEVQKAMDDKRFDEATQLRGGSFENNWNIYKLLAHQKPPKEKSNFSLAILNVGAPAAGMNAAVRSAVRTGISHGHTVYVVHDGFEGLAKGQVQEVGWHDVAGWLGRGGSMLGTKRTLPKGQLESIVENIRIYGIHALLVVGGFEAYEGVLQLVEARGRYEELCIVMCVIPATISNNVPGTDFSLGSDTAVNAAMESCDRIKQSASGTKRRVFIVETMGGYCGYLATVTGIAVGADAAYVFEDPFNIHDLKVNVEHMTEKMKTDIQRGLVLRNEKCHDYYTTEFLYNLYSSEGKGVFDCRTNVLGHLQQGGAPTPFDRNYGTKLGVKAMLWLSEKLREVYRKGRVFANAPDSACVIGLKKKAVAFSPVTELKKDTDFEHRMPREQWWLSLRLMLKMLAQYRISMAAYVSGELEHVTRRTLSMDKGF
B2: in the test with GST-DNAAF5 (human), the binding result is reported as “binds”.

B3: USP39 (deubiquitination protein), in HCC cell lysate (protein, UniProt Q53GS9 1-565)
chain: MSGRSKRESRGSTRGKRESESRGSSGRVKRERDREREPEAASSRGSPVRVKREFEPASAREAPASVVPFVRVKREREVDEDSEPEREVRAKNGRVDSEDRRSRHCPYLDTINRSVLDFDFEKLCSISLSHINAYACLVCGKYFQGRGLKSHAYIHSVQFSHHVFLNLHTLKFYCLPDNYEIIDSSLEDITYVLKPTFTKQQIANLDKQAKLSRAYDGTTYLPGIVGLNNIKANDYANAVLQALSNVPPLRNYFLEEDNYKNIKRPPGDIMFLLVQRFGELMRKLWNPRNFKAHVSPHEMLQAVVLCSKKTFQITKQGDGVDFLSWFLNALHSALGGTKKKKKTIVTDVFQGSMRIFTKKLPHPDLPAEEKEQLLHNDEYQETMVESTFMYLTLDLPTAPLYKDEKEQLIIPQVPLFNILAKFNGITEKEYKTYKENFLKRFQLTKLPPYLIFCIKRFTKNNFFVEKNPTIVNFPITNVDLREYLSEEVQAVHKNTTYDLIANIVHDGKPSEGSYRIHVLHHGTGKWYELQDLQVTDILPQMITLSEAYIQIWKRRDNDETNQQGA
Take B3: the binding result in test [2] and in test [1] was “binds” each time.

B4: His-USP39 (protein, UniProt Q53GS9 1-565)
chain: MSGRSKRESRGSTRGKRESESRGSSGRVKRERDREREPEAASSRGSPVRVKREFEPASAREAPASVVPFVRVKREREVDEDSEPEREVRAKNGRVDSEDRRSRHCPYLDTINRSVLDFDFEKLCSISLSHINAYACLVCGKYFQGRGLKSHAYIHSVQFSHHVFLNLHTLKFYCLPDNYEIIDSSLEDITYVLKPTFTKQQIANLDKQAKLSRAYDGTTYLPGIVGLNNIKANDYANAVLQALSNVPPLRNYFLEEDNYKNIKRPPGDIMFLLVQRFGELMRKLWNPRNFKAHVSPHEMLQAVVLCSKKTFQITKQGDGVDFLSWFLNALHSALGGTKKKKKTIVTDVFQGSMRIFTKKLPHPDLPAEEKEQLLHNDEYQETMVESTFMYLTLDLPTAPLYKDEKEQLIIPQVPLFNILAKFNGITEKEYKTYKENFLKRFQLTKLPPYLIFCIKRFTKNNFFVEKNPTIVNFPITNVDLREYLSEEVQAVHKNTTYDLIANIVHDGKPSEGSYRIHVLHHGTGKWYELQDLQVTDILPQMITLSEAYIQIWKRRDNDETNQQGA
As to B4, the binding result with GST-PFKL (human) and with GST-DNAAF5 (human) was “binds” throughout.
